Reference: patent US6646006B2, “Enhancement of vascular function by modulation of endogenous nitric oxide production or activity” (The Board of Trustees of the Leland Stanford Junior …, priority 1993, dated 2003)

Tested on: hypercholesterolemic rabbits
Assay: Oral arginine in cholesterol-fed rabbits: biochemical and physiological measurements
Type: in vivo, rabbit
Details: ten weeks
Description: Study design: (See, Cooke et al., 1992, supra) Male New Zealand white rabbits (n=49) were assigned to one of three treatment groups: 10 were fed with normal rabbit chow for ten weeks (Control); 19 received chow enriched with 1% cholesterol (Chol); and 20 received a 1% cholesterol diet supplemented with 2.25% L-arginine hydrochloride in the drinking water (Arg.). […] Subsequently the animals were sacrificed and the left main coronary artery and the thoracic aorta were harvested for studies of vascular reactivity and histomorphometry. In some animals, blood was collected for studies of platelet and monocyte reactivity.
Results: Biochemical and physiological measurements. […] Serum cholesterol measurements were elevated equally in both groups receiving the 1% cholesterol diet [50±6 vs. 1629±422 vs. 1852±356 mg/dl respectively for Control (=10), Chol (=13), and Arg (=14)].

## N=C(N)NCCC[C@H](N)C(=O)O [L-arginine]
Arg group
  Serum cholesterol: 1852 ± 356 mg/dL
  hemodynamic measurements, differences between groups: no significant differences
